Results reported in US8450271B2 (Northwestern University, priority 2009, dated 2013).

Test: general procedure: Fmoc solid-phase peptide synthesis; Rink amide resin (loading 0.6-0.75 mmole/g); pre-loaded glutamic acid Wang resin for filler PA; HBTU/DIEA
Conditions: whole synthesis, scale of the general procedure 1 mmole; for final HPLC purity: 220 nm

| Substance | final HPLC purity | difficulty met |
| --- | --- | --- |
| H3C(CH2)14CO-VVVAAAEEE | approximately 90% | Valine deletion |
| HSNGLPLGGGSEEEAAAVVV(K)-CO(CH2)10CH3 (HSNGLPLGGGSEEEAAAVVVK; dodecanoyl on C-terminal lysine epsilon amine) | approximately 90% | – |
